Data published in publication PMC4669837.
Results are given in words; binding and its absence hold for the method and conditions named. Binding seen in cells or lysates may run through a third protein. Some binding calls cover weakened binding; strength is not graded here.

Chains of the proteins cited; added tags and fusions are not shown.
UniProt Q14790: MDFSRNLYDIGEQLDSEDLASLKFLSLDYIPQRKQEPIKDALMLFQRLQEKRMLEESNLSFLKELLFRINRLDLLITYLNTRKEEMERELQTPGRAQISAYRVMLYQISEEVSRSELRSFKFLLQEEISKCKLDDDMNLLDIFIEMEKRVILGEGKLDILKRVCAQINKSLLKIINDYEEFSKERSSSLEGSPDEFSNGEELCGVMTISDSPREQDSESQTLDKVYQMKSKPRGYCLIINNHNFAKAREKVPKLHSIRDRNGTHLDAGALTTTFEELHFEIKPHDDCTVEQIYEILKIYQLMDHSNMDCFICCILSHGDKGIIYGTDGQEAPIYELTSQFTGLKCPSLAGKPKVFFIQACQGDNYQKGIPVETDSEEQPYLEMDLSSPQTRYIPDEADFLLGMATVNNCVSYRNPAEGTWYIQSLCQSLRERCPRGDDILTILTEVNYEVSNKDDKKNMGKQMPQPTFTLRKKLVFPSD
UniProt Q9Y572: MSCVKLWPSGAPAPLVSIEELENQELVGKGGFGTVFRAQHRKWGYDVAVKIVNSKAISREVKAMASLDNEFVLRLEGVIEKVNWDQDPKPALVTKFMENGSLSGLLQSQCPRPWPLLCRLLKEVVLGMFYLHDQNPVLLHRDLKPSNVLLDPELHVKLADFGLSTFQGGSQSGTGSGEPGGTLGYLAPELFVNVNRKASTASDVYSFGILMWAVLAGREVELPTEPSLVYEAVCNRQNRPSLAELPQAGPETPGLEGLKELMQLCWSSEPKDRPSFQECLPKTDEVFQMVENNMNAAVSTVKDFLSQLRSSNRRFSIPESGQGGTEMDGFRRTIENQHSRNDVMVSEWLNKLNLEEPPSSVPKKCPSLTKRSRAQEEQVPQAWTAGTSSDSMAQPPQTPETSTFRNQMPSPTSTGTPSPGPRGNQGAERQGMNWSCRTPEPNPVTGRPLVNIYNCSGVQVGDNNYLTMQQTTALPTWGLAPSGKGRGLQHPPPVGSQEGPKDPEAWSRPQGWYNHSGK

Target: caspase-8 (human (endogenous in HT29)) (UniProt Q14790)
Test: co-IP; HT29 cells treated with TNFα or Flag-TNFα, BV6 and zVAD (TBZ), also after siRNA knockdowns (c-IAP1, c-IAP2, XIAP, HOIP, HOIL1, sharpin); lysates or supernatants of the Flag immunoprecipitation immunoprecipitated with caspase-8 antibody on protein-A/G beads overnight at 4 °C; western blot

receptor-interacting protein kinase 3 (from UniProt Q9Y572 1-518)
binding: binds
